Reference: patent US12157773 (SYNTHEKINE, dated 2024)
No constants are given. Whether binding was seen depends on the method and setting. Some results given as binding are weak or reduced against the parent protein; the word gives no strength. Tags and fused reporters may be left off the sequences shown.

Amino acid sequences for entries named in this document (tags omitted). A change or cut given only in a name is not applied to a line headed by its entry.
UniProt Q6UWB1: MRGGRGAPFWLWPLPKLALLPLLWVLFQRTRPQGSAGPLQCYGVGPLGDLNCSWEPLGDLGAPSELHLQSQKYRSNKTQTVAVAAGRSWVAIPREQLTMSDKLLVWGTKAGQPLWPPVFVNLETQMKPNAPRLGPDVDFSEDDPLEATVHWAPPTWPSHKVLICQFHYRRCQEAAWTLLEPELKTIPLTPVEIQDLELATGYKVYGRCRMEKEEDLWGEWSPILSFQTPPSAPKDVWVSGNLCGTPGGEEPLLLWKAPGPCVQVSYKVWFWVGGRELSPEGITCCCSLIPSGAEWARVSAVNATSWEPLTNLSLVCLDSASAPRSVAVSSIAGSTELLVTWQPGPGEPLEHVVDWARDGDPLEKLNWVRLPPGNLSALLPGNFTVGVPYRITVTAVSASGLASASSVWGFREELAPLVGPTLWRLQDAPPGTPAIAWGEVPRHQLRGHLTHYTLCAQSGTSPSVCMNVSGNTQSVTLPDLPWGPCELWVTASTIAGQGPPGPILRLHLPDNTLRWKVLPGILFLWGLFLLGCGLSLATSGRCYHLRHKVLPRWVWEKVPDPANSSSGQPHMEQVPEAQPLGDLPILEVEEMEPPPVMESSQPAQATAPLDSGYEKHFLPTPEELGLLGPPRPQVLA

B1: hIL27R VHH19 Mono-Fc VHH (Fc fusion, not shown: a dimerising Fc or GST)
chain: QVQLQESGGGSVQAGGSLRLSCRASGSTYSNYCLGWFRQITGKEREGVAVINWVGGMLYFADSVKGRFTVSQDQAKNTVYLQMNSLKPEDTAMYYCAAESVSSFSCGGWLTRPDRVPYWGQGTQVTVSS
B2: hIL27R VHH21 Mono-Fc VHH (Fc fusion, not shown: a dimerising Fc or GST)
chain: QVQLQESGGGLVQPGGSLRLSCAASGFTFSLSSMSWVRQAPGKGLEWVSAISSGGASTYYTDSVKGRFTISRDNAKNMLYLQLNSLKTEDTAMYYCAKGGSGYGDASRMTSPGSQGTQVTVSS
B3: hIL27R VHH1 Mono-Fc VHH (Fc fusion, not shown: a dimerising Fc or GST)
chain: QVQLQESGGGLVQPGGSLRLSCAASGFTFSSYPMSWVRQAPGKGLEWISTISAGGDTTLYADSVKGRFTSSRDNAKNTLYLQLNSLKTEDAAIYYCAKRIDCNSGYCYRRNYWGQGTQVTVSS
B4: hIL27R VHH9 Mono-Fc VHH (Fc fusion, not shown: a dimerising Fc or GST)
chain: QVQLQESGGGSVQSGGSLRLSCAASGFTYSTSNSWMAWFRQAPGKEREGVAAIYTVGGSIFYADSVRGRFTISQDATKNMFYLQMNTLKPEDTAMYYCAAASGRLRGKWFWPYEYNYWGQGTQVTVSS
B5: hIL27R VHH15 Mono-Fc VHH (Fc fusion, not shown: a dimerising Fc or GST)
chain: QVQLQESGGGSVQAGGSLRLSCVASGYVSCDYFLPSWYRQAPGKEREFVSIIDGTGSTSYAASVKGRFTASQDKGKNIAYLQMNTLKPEDTAMYYCKASCVRGRAISEYWGQGTQVTVSS

The binders below were run against hIL27Ra-his (Origene, Catalog# TP307012) (human) (UniProt Q6UWB1) (assay: SPR, Mono-Fc VHH on Protein A chip).

binding, binds:
B1
B2
B3
B4
B5
